Tested on: WKY rats
Assay: Interim analysis after 30 months: organ weights (heart, ventricles, kidneys, spleen)
Type: in vivo, rat
Conditions: p<0.05 versus placebo
Protocol: The interim analysis was carried out after 80% of the placebo-treated animals had died; this was the case after 30 months. 10 animals of each group were selected at random and anesthetized (hexobarbital, 80 mg·kg^−1, i.p.). Blood samples were then taken, and the thoracic aortae and the hearts were prepared and biochemically and/or functionally examined (Linz et al., 1997). In accordance with the method described by Langendorff, the hearts were perfused with an oxygen-saturated (95% O2, […]), non-circulating Krebs-Henseleit solution of the following composition (mmol/l): NaCl, 118; KCl, 4.7; CaCl2, 2.5; MgSO4, 1.6; NaHCO3, 24.9; KH2PO4, 1.2; glucose, 5.5; Na-pyruvate, 2.0, using a perfusion pressure of 60 mm Hg. The pressure in the left ventricle and the pulse frequency of the heart were measured using a balloon catheter. The coronary blood flow was determined using an electromagnetic flow gage. After a washing phase of 5 minutes, 1 ml of the coronary effluent was taken off for measuring the lactate concentrations and the lactate dehydrogenase and creatine kinase activities. The weights of the entire heart and the weights of the left and the right ventricle were then determined. The left ventricle was fixed in 10% strength neutral buffered formalin solution and embedded in paraffin for light-microscopic examination.

`CC(C)c1ccc(C(=O)N=C(N)N)cc1S(C)(=O)=O.CS(=O)(=O)O` [Cariporide, cariporide] was tested, and the “weights of the spleens” value was 255±13 mg/100 g of BW.
